By UniProt entry, the sequences of proteins in these tests, tags left out. Where a name states a change or a piece, a line headed by the entry shows the natural chain unless it says otherwise.
UniProt P26648: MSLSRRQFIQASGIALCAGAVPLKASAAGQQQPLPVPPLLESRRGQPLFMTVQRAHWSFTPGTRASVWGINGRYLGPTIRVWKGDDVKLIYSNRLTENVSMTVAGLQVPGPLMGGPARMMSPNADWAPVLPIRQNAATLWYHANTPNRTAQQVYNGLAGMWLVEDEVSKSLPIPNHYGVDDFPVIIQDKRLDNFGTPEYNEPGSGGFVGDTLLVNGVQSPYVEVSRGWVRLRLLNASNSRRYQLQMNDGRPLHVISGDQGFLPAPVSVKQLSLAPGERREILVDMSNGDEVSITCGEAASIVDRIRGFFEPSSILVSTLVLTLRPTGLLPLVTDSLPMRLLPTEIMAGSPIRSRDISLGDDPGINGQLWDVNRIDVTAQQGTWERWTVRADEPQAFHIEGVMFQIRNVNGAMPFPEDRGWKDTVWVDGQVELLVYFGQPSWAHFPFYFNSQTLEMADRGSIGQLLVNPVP

In publication doi:10.1101/2025.09.16.676506:

Target: T1, TatC with a C-terminal 3XFLAG tag (E. coli) (UniProt P69423)
T1 sequence: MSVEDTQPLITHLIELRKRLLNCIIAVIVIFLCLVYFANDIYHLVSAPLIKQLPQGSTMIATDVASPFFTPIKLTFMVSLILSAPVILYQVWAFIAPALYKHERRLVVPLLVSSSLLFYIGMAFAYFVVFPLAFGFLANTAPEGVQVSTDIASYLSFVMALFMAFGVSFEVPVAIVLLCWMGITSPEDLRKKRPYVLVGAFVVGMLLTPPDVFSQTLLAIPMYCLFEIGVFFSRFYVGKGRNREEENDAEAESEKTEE
Test: cryo-EM structure

## SufI–8×His (from UniProt P26648)
  binding: binds

No constants are given. Whether binding was seen depends on the method and setting. A result given as binding can be weak or reduced; the word gives no strength. Tags and fused reporters may be left off the sequences shown.
